Hit rate of the full screen: of about 340,000 compounds, about 170 (0.05%) were called active. Inconclusive means that the source gave no clear call. Such entries were picked first, then a sample of the others. Calls follow the shape of the dose curve; as a rule, active = well fitted inhibition curve with a large enough effect in the signal ratio, with a control signal flat (not every such curve was filed as active); inconclusive = small, poorly fitted or top-dose-only effect, or effect the other way, or a change in a side signal; inactive = flat fitted curve, though single readings scatter; the % refers to the signal ratio. Potencies of inconclusive entries are doubtful fits and often do not repeat.
Experiment: qHTS Assay to Find Inhibitors of Chronic Active B-Cell Receptor Signaling;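 as to activity change, negative = inhibition: plate controls were basal doxycycline-induced cells for no effect and cells given 10 µM MG132 for full effect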
Details: ABC-DLBCL IkBa-CBG/CBR reporter, luminescence ratio (green luciferase fused to IkBa over red control in TMD8 lymphoma cells), 4 h; activity change, negative = inhibition: at 46.1 µM (top of the series) unless noted
In short: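 Compounds up to 46 uM were incubated four hours with TMD8 cells whose green CBG68 luciferase is fused to IkappaBalpha; red CBR luminescence normalised the signal, and concentration-effect curves were fitted to fusion, red and ratio data.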
Potency is read from the fitted curve at half-maximal effect.

| Compound | activity change, negative = inhibition | Potency |
| --- | --- | --- |
| Cc1ccc(CCN2C(=O)CCC2(C)C(=O)NCc2cccnc2)cc1 (stereo not drawn) | inactive: -3.7% |  |
| CCNC(=S)N(CCc1ccc(OC)c(OC)c1)Cc1cc2cc(OC)ccc2[nH]c1=O |  | inconclusive: 15.8 µM [falling, partial curve, poor fit] |
| COc1ccc(OC)c(NC(=O)CN(C)S(=O)(=O)c2ccc3nc(C)sc3c2)c1 | inconclusive: -6.78% |  |
| CCOC(=O)N1CCC(N2C(=O)c3ccccc3C2Nc2cc(C(=O)OC)cc(C(=O)OC)c2)CC1 (stereo not drawn) | inconclusive: 18.4% |  |
| Cc1ccccc1C(=O)Nc1ccccc1C(=O)NCc1ccccc1 | inconclusive: 4.94% |  |
| Cc1ccc(S(=O)(=O)N2CCOCC2)cc1C(=O)Nc1ccccc1F | inactive: -5.61% |  |
| COc1ccc(Cl)cc1NC(=O)CN(C)C(=O)c1ccc(N2CCCCCC2)c([N+](=O)[O-])c1 | inactive: -0.54% |  |
| O=c1cc(CSc2ccc([N+](=O)[O-])cc2)nc2sccn12 | inactive: 5.47% |  |
| COCCNc1nc2c(c(=O)n(C)c(=O)n2C)n1Cc1cccc(C(F)(F)F)c1 | inactive: -0.808% |  |
| CCOC(=O)c1c(C)oc2c1c(CN1CCN(CCO)CC1)c(O)c1ccccc12 | inconclusive: 3.28% |  |
| CC1CC(C)CN(C(=O)c2ccncc2)C1 (stereo not drawn) | inconclusive: 1.67% |  |
| Cc1cc(C)c(S(=O)(=O)N2CCN(c3ccccc3)CC2)c(C)c1 | inactive: 1.51% |  |
| CCOC(=O)c1cn2nc(N3CCCCC3)ccc2n1 |  | inconclusive: 20 µM [falling, single point] |
| O=C(C#Cc1cccc([N+](=O)[O-])c1)c1ccccc1 |  | inconclusive: 11.6 µM [falling, partial curve, poor fit] |
| O=c1[nH]c2cc3c(cc2cc1CN(Cc1nnnn1CC1CCCO1)C1CCCCC1)OCO3 (stereo not drawn) | inconclusive: 3.49% |  |
| COc1ccc(C(=O)NCc2n[nH]c(=S)n2-c2ccccc2)cc1OC | inconclusive: 12.5% |  |
| Cc1cccc(CC(=O)Nc2cc(C)c3c(=O)oc4ccccc4c3n2)c1 | inconclusive: 8.89% |  |
| CCN1CCC(NC(=O)Nc2ccc(F)cc2)CC1 | inconclusive: 5.71% |  |
| COc1ccc(C2CCCN2C(=S)Nc2ccc(C)cc2Cl)cc1OC (stereo not drawn) | inconclusive: -1.5% |  |
| CN(C)c1ccc(/C=C/C(=O)c2ccc(C(C)(C)C)cc2)cc1[N+](=O)[O-] |  | inconclusive: 23.1 µM [falling, partial curve, poor fit] |
| O=C(COc1ccc2ccccc2c1)NC1CC(=O)N(c2ccccc2)C1 (stereo not drawn) | inactive: -23.5% |  |
| C=CCn1c(SCC(=O)Nc2ccc3c(c2)CCC3)nc2ccccc2c1=O | inconclusive: 0.33% |  |
| Cc1ccc(CN2CC(C(=O)OCc3ccccc3Cl)CC2=O)cc1 (stereo not drawn) | inconclusive: 3.56% |  |

Given with tabs: 2 of the compounds above
Compound	activity change, negative = inhibition	Potency
Cc1ccc(S(=O)(=O)N2CCOCC2)cc1C(=O)Nc1ccccc1F	inactive: -5.61%	
COc1ccc(C2CCCN2C(=S)Nc2ccc(C)cc2Cl)cc1OC (stereo not drawn)	inconclusive: -1.5%	
